Results as given in article PMC6162288, “On-chip spatiotemporal electrophysiological analysis of human stem cell derived cardiomyocytes enables quantitative assessment of proarrhythmia in drug development” (Scientific Reports, 2018).

Legend:
[1] = system: lined-up hESC-CMs; assay: MEA field potential recording of lined-up hESC-CMs (cFPD, CT, their STVs, ISI, beat rate, arrest); conditions: Conc. 10^3 nM; arrest cases/chips
Procedure: Human embryonic stem cell-derived cardiomyocytes clusters (hES-CMCs) were shipped from Cellectis (hES-CMCTM002, hES cell line SA002, Gothenburg, Sweden)[42],[43], and maintained in Dulbecco’s modified Eagle’s medium (DMEM) supplemented 20% heat-inactivated fetal bovaine serum, 1 mM GlutaMax, 100 U/mL penicillin, 0.1 mg/mL streptomycin, 1% nonessential amino acids and 0.1 mM β-mercaptoethanol (Invitrogen, Carsbad, CA, USA). Dispersed cardiomyocytes were isolated from hES-CMCs by a modification of the methods of Norström et al.[44]–[48]. […] The supernatant was gently aspirated with pipette, and a 5-hold volume of DMEM was added as stop solution. Remaining clusters were treats ed with the above process with several times. The supernatants were collected and centrifuged with 200 × g for 2–3 min at 4 °C. […]
Extracellular potential recordings of the lined-up hESC-CMs were performed using the MEA system at a sampling rate of 10 kHz with a low path filter of 2 kHz and high path filter of 1 Hz, and signals were amplified by 100–50,000 using the amplifier. […] The signals were analyzed by Igor Pro 6.0 (WaveMetrics, Inc., USA) and FlexPro 7.0 (Weisang GmbH, Germany).
We adopted the same drug administration protocol as we examined previously[40] […] The MEA chip was placed in the holder of the FP measurement device, and equilibrated for 5 min, and then the control FP waveforms were recorded for 10 min. […]

[2] = effective therapeutic plasma concentration; cited from earlier work

For Cc1cccc(CCN2CCC(C(=O)c3ccc(NS(C)(=O)=O)cc3)CC2)n1 [E-4031], which Arrest [1] is on record?
Its Arrest is 1/13.

What about the EPTC [2] of the same molecule?
Its EPTC is 3.5 nM.
